Source: PubChem BioAssay AID1259405 (NCATS, 2018)

Assay: 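Silenced genes that increase secreted GFP made by CHO cells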 (primary screen)
Cells: Chinese hamster CHO-K1 ovary cells with stable secreted eGFP expression
Knock-down reagent: single siRNA against mouse genes, 0.8 pmol siRNA per well (2 µl of 400 nM stock)
Timing: 3 days
Detection: 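Percent of the per-plate non-targeting control median for intracellular GFP per well by laser scanning cytometry and for cell viability by ATP luminescence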
Reading the numbers: GFP, % of control: higher = more GFP per well, higher productivity; viability (ATP), % of control: higher = more viable cells (more ATP)
Active means: 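a knock-down is called active if GFP reaches 120% or more of non-targeting control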
The deposit covers about 50,000 reagents; this is a random part of them. Of all reagents, about 4,000 (8%) got an active call. 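Mouse siRNA library applied to hamster cells; one well for each siRNA.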 A number with no mark means an inactive call. Reagents against one gene are numbered here.

| GFP, % of control | viability (ATP), % of control | gene | reagent no. |
| --- | --- | --- | --- |
| 98.2 | 106 | Cul2 | 1 |
| 146 (active) | 81.8 | Cul2 | 2 |
| 74.3 | 84.4 | Cul2 | 3 |
| 76.3 | 83.1 | Mpzl1 | 1 |
| 87.2 | 83.7 | Mpzl1 | 2 |
| 50.8 | 50.6 | Bpifb5 | 1 |
| 53.2 | 82.3 | Bpifb5 | 2 |
| 101 | 108 | Bpifb5 | 3 |
| 70.4 | 60.3 | Hsd3b3 | 1 |
| 74.4 | 70.9 | Hsd3b3 | 2 |
| 45.4 | 67.6 | Hsd3b3 | 3 |
| 115 | 117 | Cyp2b10 | 1 |
| 92.8 | 91.9 | Cyp2b10 | 2 |
| 106 | 63.5 | Cyp2b10 | 3 |
| 58 | 38.1 | Grp | 1 |
| 50.4 | 71.3 | Grp | 2 |
| 98.2 | 73.9 | Grp | 3 |
| 55.3 | 53.1 | Srpk2 | 1 |
| 56 | 62.6 | Mc1r | 1 |
| 99.6 | 73.1 | Mc1r | 2 |
| 67.2 | 73.5 | Mc1r | 3 |
| 53.5 | 34.8 | Or8d2b | 1 |
| 102 | 57 | Or8d2b | 2 |
| 72.5 | 120 | Or8d2b | 3 |
| 53.1 | 63.6 | Vasn | 1 |
| 75.3 | 85.4 | Vasn | 2 |
| 155 (active) | 75.6 | Vasn | 3 |
| 83.3 | 68.6 | Mpc2 | 1 |
| 73.1 | 47 | Mpc2 | 2 |
| 74.3 | 82.8 | Mpc2 | 3 |
| 55.2 | 44.9 | Sugct | 1 |
| 49.3 | 76.3 | Sugct | 2 |
| 42.9 | 77.6 | Sugct | 3 |
| 33.9 | 37.4 | Or56b1 | 1 |
| 101 | 87.7 | Or56b1 | 2 |
| 15.2 | 18.1 | Or56b1 | 3 |
| 79.2 | 26.3 | Pcdhb6 | 1 |
| 83.8 | 53.5 | Pcdhb6 | 2 |
| 37.5 | 33.9 | Pcdhb6 | 3 |
| 85.3 | 68.7 | Sdhd | 1 |
| 74.1 | 100 | Sdhd | 2 |
| 86.4 | 102 | Sdhd | 3 |
| 88.1 | 93.1 | Fcnb | 1 |
| 62.8 | 58.1 | Fcnb | 2 |
| 58.6 | 63.8 | Gnal | 1 |
| 67.5 | 80.6 | Gnal | 2 |
| 22.1 | 27 | Gnal | 3 |
| 95.2 | 58.6 | Uts2r | 1 |
| 44.2 | 33.3 | Uts2r | 2 |
| 58.5 | 39.1 | Uts2r | 3 |
| 96.4 | 89.2 | Casp14 | 1 |
| 51.4 | 59.2 | Casp14 | 2 |
| 60.9 | 59.1 | Casp14 | 3 |
| 74.1 | 80 | Hoxb2 | 1 |
| 78.3 | 69.6 | Hoxb2 | 2 |
| 102 | 97.8 | Rnf43 | 1 |
| 108 | 78.9 | Rnf43 | 2 |
| 112 | 80.2 | Rnf43 | 3 |
| 83.4 | 55.1 | Ddhd1 | 1 |
| 86.1 | 108 | Ddhd1 | 2 |
| 56.2 | 71.4 | Ddhd1 | 3 |
| 87.1 | 90.5 | Deptor | 1 |
| 101 | 61.8 | Deptor | 2 |
| 80 | 34.8 | Deptor | 3 |
| 57.8 | 59.4 | Lst1 | 1 |
| 174 (active) | 82.3 | Lst1 | 2 |
| 107 | 72.9 | Lst1 | 3 |
| 112 | 106 | Cyyr1 | 1 |
| 25.3 | 50.3 | Cyyr1 | 2 |
| 129 (active) | 140 | Cyyr1 | 3 |
| 81.5 | 80.3 | Apon | 1 |
| 55.4 | 57 | Apon | 2 |
| 88.3 | 83.9 | Apon | 3 |
| 104 | 84.5 | Copz1 | 1 |
| 74.9 | 76.1 | Copz1 | 2 |
| 56.4 | 40.6 | Copz1 | 3 |
| 93.6 | 41 | Phyhipl | 1 |
| 34.7 | 27.4 | Phyhipl | 2 |
| 70.6 | 87.1 | Phyhipl | 3 |
| 168 (active) | 101 | Guca1a | 1 |
| 98.6 | 87.8 | Guca1a | 2 |
| 131 (active) | 63.5 | Guca1a | 3 |
| 82.7 | 78.4 | Ednrb | 1 |
| 85.5 | 86.4 | Ednrb | 2 |
| 34.9 | 69.8 | Ednrb | 3 |
| 38 | 30.5 | Sdc4 | 1 |
| 54.4 | 66.7 | Sdc4 | 2 |
| 67.3 | 65.3 | Sdc4 | 3 |
| 81.6 | 94.2 | Cd209e | 1 |
| 75.8 | 86.6 | Cd209e | 2 |
| 108 | 89 | Cd209e | 3 |
| 69.4 | 84.8 | Rassf9 | 1 |
| 69.2 | 55.7 | Rassf9 | 2 |
| 90.3 | 87 | Suds3 | 1 |
| 79.7 | 64.1 | Suds3 | 2 |
| 87.4 | 104 | Suds3 | 3 |
| 101 | 97.5 | Tbc1d31 | 1 |
| 73.4 | 81.8 | Tbc1d31 | 2 |
| 130 (active) | 64.7 | Tbc1d31 | 3 |
| 34.9 | 52 | Lancl3 | 1 |
| 54.1 | 83.8 | Lancl3 | 2 |
| 87.4 | 107 | Lancl3 | 3 |
| 72.1 | 138 | Bco2 | 1 |
| 114 | 64.2 | Bco2 | 2 |
| 89.1 | 77.6 | Bco2 | 3 |
| 77 | 75 | Ly96 | 1 |
| 91.7 | 102 | Ly96 | 2 |
| 67.2 | 69.7 | Ly96 | 3 |

Sorted by “GFP, % of control” (lowest first): some entries from above.
| GFP, % of control | viability (ATP), % of control | gene | reagent no. |
| --- | --- | --- | --- |
| 34.9 | 69.8 | Ednrb | 3 |
| 38 | 30.5 | Sdc4 | 1 |
| 54.4 | 66.7 | Sdc4 | 2 |
| 67.3 | 65.3 | Sdc4 | 3 |
| 69.4 | 84.8 | Rassf9 | 1 |
| 75.8 | 86.6 | Cd209e | 2 |
| 81.6 | 94.2 | Cd209e | 1 |
| 82.7 | 78.4 | Ednrb | 1 |
| 85.5 | 86.4 | Ednrb | 2 |
| 108 | 89 | Cd209e | 3 |
| 131 (active) | 63.5 | Guca1a | 3 |
